According to US20190350938A1 (BROAD INSTITUTE, published 2019):
These are yes or no findings as the source states them, for the method shown. For part of these data: In cells and extracts the contact can be indirect. Some binding calls cover weakened binding; strength is not graded here. Sequences can lack the tags named with a protein.

Assays:
[1] = target: T1, SLC16A11^REF-HA (human) (UniProt Q8NCK7); test: co-immunoprecipitation of BSG-V5 and SLC16A11-HA (FIG. 5D bottom)
T1 sequence: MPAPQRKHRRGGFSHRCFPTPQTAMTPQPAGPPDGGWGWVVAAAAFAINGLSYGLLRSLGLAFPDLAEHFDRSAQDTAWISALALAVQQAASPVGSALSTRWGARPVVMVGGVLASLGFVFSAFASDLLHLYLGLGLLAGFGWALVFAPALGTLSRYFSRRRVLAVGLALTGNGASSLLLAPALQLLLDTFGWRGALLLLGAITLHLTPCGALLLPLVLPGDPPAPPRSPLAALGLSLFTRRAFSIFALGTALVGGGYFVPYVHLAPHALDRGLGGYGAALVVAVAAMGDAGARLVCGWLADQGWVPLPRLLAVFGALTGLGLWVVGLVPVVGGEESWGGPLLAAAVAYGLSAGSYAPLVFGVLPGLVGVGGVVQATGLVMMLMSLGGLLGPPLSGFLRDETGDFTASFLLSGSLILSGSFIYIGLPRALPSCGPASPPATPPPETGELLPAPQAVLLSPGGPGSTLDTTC

[2] = target: T1, SLC16A11^REF-HA (human); test: reciprocal co-immunoprecipitation in HEK293T, Western blot (FIG. 5D bottom, A and B)
[3] = target: T2, SLC16A11^REF-V5 (human) (UniProt Q8NCK7); test: co-immunoprecipitation of HA- and V5-tagged SLC16A11
T2 sequence: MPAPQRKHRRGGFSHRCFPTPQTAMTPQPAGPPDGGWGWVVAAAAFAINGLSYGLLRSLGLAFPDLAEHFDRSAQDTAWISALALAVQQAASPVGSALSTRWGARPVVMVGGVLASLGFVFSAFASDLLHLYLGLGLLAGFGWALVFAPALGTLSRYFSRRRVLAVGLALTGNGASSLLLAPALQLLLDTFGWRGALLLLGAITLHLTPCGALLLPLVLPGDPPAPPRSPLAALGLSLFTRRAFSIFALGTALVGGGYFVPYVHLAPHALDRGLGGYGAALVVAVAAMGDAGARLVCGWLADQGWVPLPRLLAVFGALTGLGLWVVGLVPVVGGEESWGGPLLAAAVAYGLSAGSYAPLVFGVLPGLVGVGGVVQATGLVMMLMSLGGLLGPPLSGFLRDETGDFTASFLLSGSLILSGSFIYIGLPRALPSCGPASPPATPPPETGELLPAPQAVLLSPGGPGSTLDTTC

[4] = target: T2, SLC16A11^REF-V5 (human); test: co-immunoprecipitation, Western blot (FIG. 5B bottom)
[5] = target: T1, SLC16A11^REF-HA (human); test: co-immunoprecipitation of endogenous BSG with SLC16A11-HA (FIG. 5D bottom, FIG. 5E top)
[6] = target: T3, P2D SLC16A11^T2D-V5 (human); test: anti-V5 IP, iTRAQ quantitative MS, T2D risk vs WT (FIG. 5C top)
T3 sequence: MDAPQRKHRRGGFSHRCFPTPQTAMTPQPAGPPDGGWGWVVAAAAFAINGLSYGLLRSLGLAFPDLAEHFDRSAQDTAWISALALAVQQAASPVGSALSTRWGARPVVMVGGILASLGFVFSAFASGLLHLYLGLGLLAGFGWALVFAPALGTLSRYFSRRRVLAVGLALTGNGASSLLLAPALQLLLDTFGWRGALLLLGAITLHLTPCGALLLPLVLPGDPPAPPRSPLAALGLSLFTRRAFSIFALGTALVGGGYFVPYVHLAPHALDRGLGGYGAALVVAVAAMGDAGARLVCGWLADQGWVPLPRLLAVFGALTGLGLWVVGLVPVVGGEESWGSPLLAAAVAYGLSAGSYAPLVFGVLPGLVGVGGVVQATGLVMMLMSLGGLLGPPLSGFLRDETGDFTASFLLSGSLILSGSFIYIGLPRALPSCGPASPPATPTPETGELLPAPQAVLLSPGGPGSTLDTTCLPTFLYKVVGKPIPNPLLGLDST

[7] = target: T1, SLC16A11^REF-HA (human); test: co-immunoprecipitation, Western blot (FIG. 5E top)
[8] = target: T4, P2D SLC16A11^REF-V5 (human, UniProt Q8NCK7 1-447); test: IP of WT SLC16A11 vs empty vector control IP, quantitative MS
T4 construct: bait of the proteomics study; also called P2D WT SLC16A11; WT SLC16A11
T4 sequence: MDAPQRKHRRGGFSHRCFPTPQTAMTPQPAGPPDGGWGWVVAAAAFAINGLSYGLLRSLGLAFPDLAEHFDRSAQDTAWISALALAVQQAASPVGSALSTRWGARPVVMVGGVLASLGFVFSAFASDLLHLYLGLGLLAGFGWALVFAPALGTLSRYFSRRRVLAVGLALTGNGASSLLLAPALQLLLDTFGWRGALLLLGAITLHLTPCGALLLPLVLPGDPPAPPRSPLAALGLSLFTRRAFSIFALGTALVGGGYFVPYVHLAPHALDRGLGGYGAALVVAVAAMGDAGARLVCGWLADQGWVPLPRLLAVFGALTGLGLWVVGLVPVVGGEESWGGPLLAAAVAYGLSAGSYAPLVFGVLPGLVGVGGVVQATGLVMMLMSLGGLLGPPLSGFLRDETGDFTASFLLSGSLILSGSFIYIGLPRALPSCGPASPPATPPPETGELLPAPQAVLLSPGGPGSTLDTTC

[9] = target: T1, SLC16A11^REF-HA (human); test: co-immunoprecipitation in HEK293T, Western blot (FIG. 5D bottom, C)

Measured: binding

BSG-V5 (from UniProt P35613 22-269)
binds: [1] | [2]

B1: SLC16A11^REF-HA (protein, not shown: small tags and cut ends)
chain: MPAPQRKHRRGGFSHRCFPTPQTAMTPQPAGPPDGGWGWVVAAAAFAINGLSYGLLRSLGLAFPDLAEHFDRSAQDTAWISALALAVQQAASPVGSALSTRWGARPVVMVGGVLASLGFVFSAFASDLLHLYLGLGLLAGFGWALVFAPALGTLSRYFSRRRVLAVGLALTGNGASSLLLAPALQLLLDTFGWRGALLLLGAITLHLTPCGALLLPLVLPGDPPAPPRSPLAALGLSLFTRRAFSIFALGTALVGGGYFVPYVHLAPHALDRGLGGYGAALVVAVAAMGDAGARLVCGWLADQGWVPLPRLLAVFGALTGLGLWVVGLVPVVGGEESWGGPLLAAAVAYGLSAGSYAPLVFGVLPGLVGVGGVVQATGLVMMLMSLGGLLGPPLSGFLRDETGDFTASFLLSGSLILSGSFIYIGLPRALPSCGPASPPATPPPETGELLPAPQAVLLSPGGPGSTLDTTC
binds: [3] | [4]

B2: Basigin (other, human, UniProt P35613-2 22-269, looked up)
chain: AAGTVFTTVEDLGSKILLTCSLNDSATEVTGHRWLKGGVVLKEDALPGQKTEFKVDSDDQWGEYSCVFLPEPMGTANIQLHGPPRVKAVKSSEHINEGETAMLVCKSESVPPVTDWAWYKITDSEDKALMNGSESRFFVSSSQGRSELHIENLNMEADPGQYRCNGTSSKGSDQAIITLRVRSHLAALWPFLGIVAEVLVLVTIIFIYEKRRKPEDVLDDDDAGSAPLKSSGQHQNDKGKNVRQRNSS
modifications: glycosylated (runs as multiple bands)
notes: Endogenous protein co-precipitated from HEK293T lysate; also called BSG; endogenous BSG
binds: [5] | [6] | [7] | [8] | [9]
